Experimental data from PubChem BioAssay AID1347426 (Functional Genomics Laboratory (NCATS/FGL), 2020).
Out of some 31,000 sequences screened, about 1,400 (4.5%) were called active.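 How the source made its calls: active means median seed-adjusted z-score above 1 or below -1; inactive means the rest.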 This is one part of the list.

Experiment: Novel Modifiers of Survival Motor Neuron (SMN) Protein: Gene Identification via Genome-wide siRNA Screen;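 further: luminescence tracks full-length SMN protein made from the SMN2 reporter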
Settings: HEK293T SMN2-luciferase reporter, siRNA knockdown, 72 h; actives lie on both sides
Outline: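 Each of three siRNAs per gene is reverse-transfected (1 pmol) into reporter HEK293T cells whose luciferase output tracks SMN protein level. After 72 h culture, ONE-Glo luminescence is control-normalized, log10-transformed and MAD-standardized; Common Seed Analysis deprioritizes seed-driven hits.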

Question: For ACCUCAAGAUCAUCACUGATT against SMARCD2, which median seed-adjusted z-score is on record?
Answer: inactive: 0.162

Question: With GUGCCUUGAUGUAUCCCAATT against MMP8 as the sequence, how does the median seed-adjusted z-score read?
Answer: inactive: -0.781

Question: For GCUCGUGUAUACUACCAAUTT against LPXN, which median seed-adjusted z-score is on record?
Answer: inactive: -0.065

Question: With GGAUCUUCAGUGUGCGCAATT against GPR50 as the sequence, how does the median seed-adjusted z-score read?
Answer: inactive: -0.0348

Question: Which median seed-adjusted z-score does the source give for GGAGAAAGCUAAUCAGCGATT against CUX2 here?
Answer: inactive: 0

Question: Which median seed-adjusted z-score does the source give for GGAAGAUUACCGAACGAGATT against PPP2R2C here?
Answer: inactive: -0.87

Question: Which median seed-adjusted z-score does the source give for UGUUCAAACGCACUGUUUATT against DLX1 here?
Answer: inactive: 0.0356

Question: For GCAUAUUGCGAUCCUGGAATT against PRL, which median seed-adjusted z-score is on record?
Answer: inactive: 0

Question: Which median seed-adjusted z-score does the source give for CACAGACGGUCAACAACAATT against NFYB here?
Answer: inactive: -0.29

Question: With GAGUUCCUCUUGGAUCUAATT against CASQ2 as the sequence, how does the median seed-adjusted z-score read?
Answer: inactive: 0.4

Question: For GAGACAUUGUAGUGAAGAATT against CDY2A, which median seed-adjusted z-score is on record?
Answer: inactive: 0.75

Question: With CCAAUUACCUGCUCAGAGATT against POU6F1 as the sequence, how does the median seed-adjusted z-score read?
Answer: inactive: 0.978

Question: For CGACAUGAUCUCCUACUCATT against ABLIM2, which median seed-adjusted z-score is on record?
Answer: inactive: -0.26

Question: For GCGACCACAUGAGCUCCUATT against P2RY6, which median seed-adjusted z-score is on record?
Answer: inactive: 0.00327

Question: With UCUUCAUGCUGUCCACCAATT against OXER1 as the sequence, how does the median seed-adjusted z-score read?
Answer: inactive: -0.471

Question: Which median seed-adjusted z-score does the source give for GGAUUAGUAGUGACCAUUATT against OLR1 here?
Answer: inactive: 0

Question: For UGAAAGAACUGAUUGAGAATT against NDUFV1, which median seed-adjusted z-score is on record?
Answer: inactive: -0.653

Question: For GGAACAAUCUGAUUCAACATT against MBNL3, which median seed-adjusted z-score is on record?
Answer: inactive: -0.189

Question: With GGAGGAGGUGUUUCGCUUUTT against CPOX as the sequence, how does the median seed-adjusted z-score read?
Answer: inactive: -0.135

Question: With GACCGGAUCUUAUCGGUGATT against DLG3 as the sequence, how does the median seed-adjusted z-score read?
Answer: inactive: -0.317

Question: With CGUUUGGUCUCACUCAUAATT against SNX14 as the sequence, how does the median seed-adjusted z-score read?
Answer: inactive: 0

Question: For CCAUAGAAUUCAAAAUCCUTT against BCL2L14, which median seed-adjusted z-score is on record?
Answer: inactive: -0.859

Question: With GAACGAGUGUGAAACACUATT against LTBP4 as the sequence, how does the median seed-adjusted z-score read?
Answer: inactive: 0.19

Question: With CGAGAAAGCCUAUCACGAATT against TUBA8 as the sequence, how does the median seed-adjusted z-score read?
Answer: inactive: -0.0453

Question: For CACCAAAACGGGAGACAAATT against MMAB, which median seed-adjusted z-score is on record?
Answer: inactive: 0

Question: With AGUCAGGGUCGGCUUGUGATT against HMGN2 as the sequence, how does the median seed-adjusted z-score read?
Answer: inactive: -0.038

Question: Which median seed-adjusted z-score does the source give for GCUUAGGCUUGAUUUCCGATT against SLC30A7 here?
Answer: inactive: 0.0492

Question: Which median seed-adjusted z-score does the source give for GAAGUUUCCAAGUUAGUGATT against ALB here?
Answer: inactive: -0.153

Question: For AGGAAGAUGCGGCCAAUAATT against TUBA3C, which median seed-adjusted z-score is on record?
Answer: inactive: -0.0806

Question: With UGCUCUUCGUGUUCCGCUATT against DERL3 as the sequence, how does the median seed-adjusted z-score read?
Answer: inactive: 0.043

Question: Which median seed-adjusted z-score does the source give for GACGAUUUGUAGUUACCUATT against DZIP3 here?
Answer: inactive: 0.435

Question: For GGGCUAGUGUUUUACGUGATT against DYNC1LI2, which median seed-adjusted z-score is on record?
Answer: inactive: -0.491

Question: For GACAAUAAUCUACUACAUATT against FBXO45, which median seed-adjusted z-score is on record?
Answer: inactive: -0.043

Question: For GAGUGAAUAAUGAGAAAAATT against HPGD, which median seed-adjusted z-score is on record?
Answer: inactive: -0.145

Question: For CAUCCAUUUCAGGCAAAUATT against NEK3, which median seed-adjusted z-score is on record?
Answer: inactive: 0.118

Question: With GGCUUCGUGUCAUUGCAAATT against APOL4 as the sequence, how does the median seed-adjusted z-score read?
Answer: inactive: -0.54

Question: With GAGCUGCUAUGUUCUAUGATT against IL28RA as the sequence, how does the median seed-adjusted z-score read?
Answer: inactive: 0

Question: With GGACAACCAAAAGUCAGAATT against CYP2C8 as the sequence, how does the median seed-adjusted z-score read?
Answer: inactive: 0.371

Question: For AAUCCGUUGUGGAAUGAAATT against GTF3C5, which median seed-adjusted z-score is on record?
Answer: inactive: 0.493

Question: For GGACGGGCCUGAAAGCAUUTT against PGPEP1, which median seed-adjusted z-score is on record?
Answer: inactive: -0.0356

Question: With UCGUUUUUACAGAUGUUAATT against SAP18 as the sequence, how does the median seed-adjusted z-score read?
Answer: active: 2.14

Question: Which median seed-adjusted z-score does the source give for GGUUAAAAGUCGGUCCCAATT against SGCG here?
Answer: inactive: 0.886

Question: With CACCUUCACUGAUACUUUUTT against TRIM39 as the sequence, how does the median seed-adjusted z-score read?
Answer: inactive: 0.41

Question: Which median seed-adjusted z-score does the source give for CUAACUUUGUAAUCGAGGATT against RASA2 here?
Answer: inactive: -0.913

Question: Which median seed-adjusted z-score does the source give for AGAGAUUUCUAUGCCCUCATT against NRBP2 here?
Answer: inactive: 0.093

Question: Which median seed-adjusted z-score does the source give for GGAGUGCAACAACUGCUCUTT against SCN2B here?
Answer: inactive: -0.65

Question: Which median seed-adjusted z-score does the source give for CUAUUGUAAAGGAUGCUAUTT against CSRP2 here?
Answer: inactive: -0.829

Question: Which median seed-adjusted z-score does the source give for UCAAGUUCCUUAUCUCGGATT against CAND2 here?
Answer: inactive: 0.0936

Question: For GGACGAUUGAAGAAUCCAUTT against SMARCAD1, which median seed-adjusted z-score is on record?
Answer: inactive: -0.198

Question: For AGUGGAGAGUGUGACCCAATT against PSMA5, which median seed-adjusted z-score is on record?
Answer: inactive: -0.824

Question: For GCUGUGCAAUCUCAUCGGATT against REEP6, which median seed-adjusted z-score is on record?
Answer: inactive: -0.348

Question: For GGAAUUCUCUCACGACCAATT against KIF3C, which median seed-adjusted z-score is on record?
Answer: inactive: 0.0126

Question: With AGAUAUGAAACAUCGGCUATT against RGS4 as the sequence, how does the median seed-adjusted z-score read?
Answer: inactive: 0

Question: With GCAAUGGGUUUGAUAGGAATT against CLCA2 as the sequence, how does the median seed-adjusted z-score read?
Answer: inactive: 0.669

Question: With GGACUCUCAUGAGUGCUGATT against ACP2 as the sequence, how does the median seed-adjusted z-score read?
Answer: inactive: -0.00569

Question: Which median seed-adjusted z-score does the source give for GGACUAUGCUGAAGUAUCATT against POLR3C here?
Answer: inactive: -0.294

Question: For GGGCAUCGAUUAUGCUGAATT against GNAT2, which median seed-adjusted z-score is on record?
Answer: inactive: 0

Question: Which median seed-adjusted z-score does the source give for ACAAGUUGGUACCAACAAATT against CCL18 here?
Answer: inactive: 0.169

Question: Which median seed-adjusted z-score does the source give for CCAGGCAAAUAGUGAAGAATT against VAX1 here?
Answer: inactive: 0.937

Question: Which median seed-adjusted z-score does the source give for GAAGAUUGGUCUCCAGUAATT against FDFT1 here?
Answer: inactive: -0.143

Question: Which median seed-adjusted z-score does the source give for AGAAUAUCAACGAACUCAATT against PEX14 here?
Answer: inactive: 0.844

Question: For GCAUGUUCCAGAUCUAUCATT against DRD5, which median seed-adjusted z-score is on record?
Answer: inactive: -0.18

Question: With GAAGAAGACUGCUUUAGUUTT against RG9MTD3 as the sequence, how does the median seed-adjusted z-score read?
Answer: inactive: -0.174

Question: Which median seed-adjusted z-score does the source give for GGAAUUGUUGGAUAAAUAUTT against YWHAQ here?
Answer: inactive: -0.412

Question: With GGUCCUCAGCUACAAGGAATT against CAMP as the sequence, how does the median seed-adjusted z-score read?
Answer: inactive: -0.622

Question: Which median seed-adjusted z-score does the source give for GGAUGAACUCAAUACUAUUTT against OXGR1 here?
Answer: inactive: -0.0388

Question: With CCGCAGACCCGAAAGUGAATT against MARVELD3 as the sequence, how does the median seed-adjusted z-score read?
Answer: inactive: -0.021

Question: Which median seed-adjusted z-score does the source give for AUAUGAAACAUACAAGGAATT against RBM8A here?
Answer: inactive: 0

Question: With “GGUCAUUAAUAAUCCUGAUTT against CSGALNACT2” as the sequence, how does the median seed-adjusted z-score read?
Answer: inactive: 0.236
